Experimental findings from publication PMC7560607, “Synapse type-specific proteomic dissection identifies IgSF8 as a hippocampal CA3 microcircuit organizer” (Nature Communications, 2020) are described below.

Results are given in words; binding and its absence hold for the method and conditions named. In cells and extracts the contact can be indirect. A yes stands for co-enrichment or nearness to the bait. Other partners may have been found. Sequences can lack the tags named with a protein.

Assay [1] has as its target T1, IgSF8-ecto-Fc, purified (not stated (human or mouse sequence cloned)) (UniProt Q8R366).
T1 sequence: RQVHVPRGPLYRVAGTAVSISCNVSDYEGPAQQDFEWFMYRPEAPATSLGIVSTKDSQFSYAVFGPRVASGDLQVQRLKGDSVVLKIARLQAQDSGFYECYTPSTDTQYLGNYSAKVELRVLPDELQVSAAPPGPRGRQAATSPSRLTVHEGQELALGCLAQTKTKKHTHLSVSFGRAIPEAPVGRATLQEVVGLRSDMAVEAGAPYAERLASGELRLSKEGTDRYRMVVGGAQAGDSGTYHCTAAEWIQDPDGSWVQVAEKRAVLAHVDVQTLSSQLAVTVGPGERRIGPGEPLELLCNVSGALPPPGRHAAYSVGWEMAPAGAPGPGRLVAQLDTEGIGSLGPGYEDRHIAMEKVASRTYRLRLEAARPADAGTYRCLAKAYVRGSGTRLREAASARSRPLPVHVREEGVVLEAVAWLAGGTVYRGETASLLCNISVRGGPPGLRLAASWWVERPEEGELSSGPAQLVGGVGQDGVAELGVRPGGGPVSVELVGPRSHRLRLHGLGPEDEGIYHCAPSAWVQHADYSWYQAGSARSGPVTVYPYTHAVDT
The assay can be described thus: affinity purification with mass spectrometry; 100 µg IgSF8-ecto-Fc prebound to Protein-A sepharose; 1% Triton X-100 extract of P21-22 rat whole brain P2 synaptosomes; overnight 4 °C; high-salt (300 mM NaCl) wash; LC-MS/MS; human Fc as control; only the target purified.

Assay [2] concerns the target T1, IgSF8-ecto-Fc, purified (not stated (human or mouse sequence cloned)). The assay can be described thus: affinity purification with mass spectrometry; 100 µg IgSF8-ecto-Fc prebound to Protein-A sepharose; 1% Triton X-100 extract of P21 mouse P1 crude MF synaptosomes; overnight 4 °C; high-salt (300 mM NaCl) wash; LC-MS/MS; human Fc as control; only the target purified.

B1: Tenascin-R, endogenous in rat brain synaptosome extract (protein, UniProt Q05546 32-1356)
chain: RLEVTTERVQRQTVEEEGGASSYNTSSKEQPMVFNHVYNINVPLESLCSSGLEASAEQDVSAEDDTLAEYTGQTSDHESQVTFTHKINLPKKACPCASSAQVLQELLSRIEMLEREVSVLRDQCNTNCCQESAATGQLDYVPHCSGHGNFSFESCGCICNEGWFGKNCSEPYCPLGCSSRGVCVDGQCICDSEYSGDDCSELRCPTDCSSRGLCVDGECVCEEPYTGEDCRELRCPGDCSGKGQCANGTCLCQEGYAGEDCSQRRCLNACSGRGHCQEGLCICEEGYQGPDCSAVTPPEDLRVAGISDRSIELEWDGPMAVTEYVISYQPSLGGLQLQQRVPGDWSGVTITELEPGLTYNISVYAVISNILSLPITAKVATHLSTPQGLQFKTITETTVEVQWEPFSFSFDGWEISFTPKNNEGGVIAQLPSDVTSFNQTGLKPGEEYIVNVVALKEQARGPPTSASVSTVIDGPTQILVRDVSDTVAFVEWTPPRAKVDFILLKYGLVGGEGGKTTFRLQPPLSQYSVQALRPGSRYEVSISAVRGTNESDASSTQFTTEIDAPKNLRVGSRTATSLDLEWDNSEAEAQEYKVVYSTLAGEQYHEVLVPKGIGPTTKTTLTDLVPGTEYGVGISAVMNSKQSIPATMNARTELDSPRDLMVTASSETSISLIWTKASGPIDHYRITFTPSSGISSEVTVPRDRTSYTLTDLEPGAEYIISITAERGRQQSLESTVDAFTGFRPISHLHFSHVTSSSVNITWSDPSPPADRLILNYSPRDEEEEMMEVLLDATKRHAVLMGLQPATEYIVNLVAVHGTVTSEPIVGSITTGIDPPKNITISNVTKDSLTVSWSPPVAPFDYYEYPIDHPSGRLDSSVVPNTVTEFTITRLYPASQYEISLNSVRGREESERICTLVHTAMDSPMDLIATNITPTEALLQWKAPMGEVENYVIVLTHFAMAGETILVDGVSEEFQLVDLLPRTHYTVTMYATSGPLVSGTIATNFSTLLDPPANLTASEVTRQSALISWQPPRAAIENYVLTYKSTDGSRKELIVDAEDTWIRLEGLSENTDYTVLLQAAQEATRSSLTSTIFTTGGRVFSHPQDCAQHLMNGDTLSGVYTIFLNGELSHKLQVYCDMTTDGGGWIVFQRRQNGQTDFFRKWADYRVGFGNLEDEFWLGLDNYHRITAQGRYELRVDMRDGQEAVFAYYDKFAVEDSRSLYKLRIGGYNGTAGDSLSYHQGRPFSTEDRDNDVAVTNCAMSYKGAWWYKNCHRTNLNGKYGESRHSQGINWYHWKGHEFSIPFVEMKMRPYIHRLTAGRKRRALKF
B1: the binding result in assay [1] is “binds”.

B2: Tenascin-R, endogenous in mouse MF synaptosome extract (protein, UniProt Q8BYI9 32-1358)
chain: RLEVTTERAQRQTVEEEGGASSYNTSSKEQPMVFNHVYNINVPLESLCSSGLEASAEQDMSAEDDTLAEYIGQTSDHESQVTFTHKINLPKKACPCASSSQVLQELLSRIEMLEREVSLLRDQCNTNCCQESAATGQLDYVPHCSGHGNFSFESCGCICNEGWFGKNCSEPYCPLGCSSRGVCVDGQCICDSEYSGDDCSELRCPTDCSSRGLCVDGECVCEEPYTGEDCRELRCPGDCSGKGQCANGTCLCQEGYAGEDCSQRRCLNACSGRGHCQEGLCICEEGYQGPDCSAVAPPEDLRVAGISDRSIELEWDGPMAVTEYVISYQPTALGGLQLQQRVPGDWSGVTIMELEPGLTYNISVYAVISNILSLPITAKVATHLSTPQGLQFKTITETTVEVQWEPFSFSFDGWEISFIPKNNEGGVIAQLPSDVTSFNQTGLKPGEEYIVNVVALKEQARSPPTSASVSTVIDGPTQILVRDVSDTVAFVEWTPPRAKVDFILLKYGLVGGEGGKTTFRLQPPLSQYSVQALRPGSRYEVSISAVRGTNESEASSTQFTTEIDAPKNLRVGSRTATSLDLEWDNSEAEAQEYKVVYSTLAGEQYHEVLVPKGIGPTTKTTLTDLVPGTEYGVGISAVMNSKQSIPATMNARTELDSPRDLMVTASSETSISLIWTKASGPIDHYRITFTPSSGISSEVTVPRDRTSYTLTDLEPGAEYIISITAERGRQQSLESTVDAFTGFRPISHLHFSHVTSSSVNITWSDPSPPADRLILNYSPRDKEEDMLEVLLDATKRHAVLMGLQPATEYIVNLVAVHGTVTSEPIVGSITTGIDPPKNITISNVTKDSLTVSWSSPVAPFDYYRVSYRPTQVGRLDSSVVPNTVTEFAITRLYPATEYEISLNSVRGREESERICTLVHTAMDSPMDLIATNITPTEALLQWKAPMGEVENYVIVLTHFAIAGETILVDGVSEEFQLVDLLPSTHYTVTMYATSGPLMSGTIATNFSTLLDPPDNLTASEVTRQSALISWQPPRAAIENYVLTYKSTDGSRKELIVDAEDTWIRLEGLSENTDYTVLLQAAQEATRSSLTSTVFTTGGRVFSHPQDCAQHLMNGDTLSGVYTIFLNGELSHKLQVYCDMTTDGGGWIVFQRRQNGQTDFFRKWADYRVGFGNLEDEFWLGLDNIHRITAQGRYELRVDMRDGQEAVFAYYDKFAVEDSRSLYKIRIGSYNGTAGDSLSYHQGRPFSTEDRDNDVAVTNCAMSYKGAWWYKNCHRTNLNGKYGESRHSQGINWYHWKGHEFSIPFVEMKMRPYIHRLTAGRKRRALKF
B2: the binding entry in assay [2] is “binds”.
